PubChem BioAssay AID1224830 | NIAID – 2016
This is an unselected part of about 18,000 deposited reagents. Over the whole deposit, about 2,900 (16%) were called active. 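Calls are made per well; low scores hint the gene aids the LPS response, high scores that it dampens it.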 Repeated entries: four replicate wells of each siRNA pool.

Aim: 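Regulators of TLR4 signalling towards TNF-alpha in macrophage-like cells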 (primary screen)
Cell system: human THP-1 monocytic leukaemia cells, TNF dual-luciferase reporter clone, PMA-differentiated to macrophage-like cells
Reagent: siRNA pool against human genes, 50 nM
Timing: LPS for 4 h, given about 3 days after siRNA transfection
Conditions: bacterial LPS (TLR4 ligand), 10 ng/ml
Detection: 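TNF firefly reporter luminescence divided by renilla, normalised to the plate median, then turned into a robust z-score for each replicate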
Direction: TNF reporter robust z-score: higher = stronger TNF reporter response to LPS
Hit rule: 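Each well counts as active if its z-score is over 2.8 or under -1.5; controls are left without a call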

target | TNF reporter robust z-score | outcome
COL4A6 (collagen type IV alpha 6 chain) | -0.27 | inactive
COL4A6 (collagen type IV alpha 6 chain) | 0.27 | inactive
COL4A6 (collagen type IV alpha 6 chain) | 0.51 | inactive
COL4A6 (collagen type IV alpha 6 chain) | 0.15 | inactive
GYPE (glycophorin E (MNS blood group)) | 1.31 | inactive
GYPE (glycophorin E (MNS blood group)) | -0.55 | inactive
GYPE (glycophorin E (MNS blood group)) | 0.2 | inactive
GYPE (glycophorin E (MNS blood group)) | 0.61 | inactive
TREML4 (triggering receptor expressed on myeloid cells like 4) | 0.18 | inactive
TREML4 (triggering receptor expressed on myeloid cells like 4) | -0.69 | inactive
TREML4 (triggering receptor expressed on myeloid cells like 4) | -0.86 | inactive
TREML4 (triggering receptor expressed on myeloid cells like 4) | -1.01 | inactive
DLG3 (discs large MAGUK scaffold protein 3) | -0.3 | inactive
DLG3 (discs large MAGUK scaffold protein 3) | -0.62 | inactive
DLG3 (discs large MAGUK scaffold protein 3) | -0.52 | inactive
DLG3 (discs large MAGUK scaffold protein 3) | -0.36 | inactive
OR12D2 (olfactory receptor family 12 subfamily D member 2) | -0.56 | inactive
OR12D2 (olfactory receptor family 12 subfamily D member 2) | -0.21 | inactive
OR12D2 (olfactory receptor family 12 subfamily D member 2) | -0.14 | inactive
OR12D2 (olfactory receptor family 12 subfamily D member 2) | 0.04 | inactive
ANKRD20A1 (ankyrin repeat domain 20 family member A1) | -0.41 | inactive
ANKRD20A1 (ankyrin repeat domain 20 family member A1) | -0.02 | inactive
ANKRD20A1 (ankyrin repeat domain 20 family member A1) | -0.22 | inactive
ANKRD20A1 (ankyrin repeat domain 20 family member A1) | -1.05 | inactive
DSN1 (DSN1 component of MIS12 kinetochore complex) | 0.65 | inactive
DSN1 (DSN1 component of MIS12 kinetochore complex) | 0.6 | inactive
DSN1 (DSN1 component of MIS12 kinetochore complex) | 0.09 | inactive
DSN1 (DSN1 component of MIS12 kinetochore complex) | 2.06 | inactive
EID3 (EP300 interacting inhibitor of differentiation 3) | -0.25 | inactive
EID3 (EP300 interacting inhibitor of differentiation 3) | 0.8 | inactive
EID3 (EP300 interacting inhibitor of differentiation 3) | 0.42 | inactive
EID3 (EP300 interacting inhibitor of differentiation 3) | 1 | inactive
ZNF705A (zinc finger protein 705A) | -0.19 | inactive
ZNF705A (zinc finger protein 705A) | -0.22 | inactive
ZNF705A (zinc finger protein 705A) | 0.82 | inactive
ZNF705A (zinc finger protein 705A) | 1.62 | inactive
FRMPD1 (FERM and PDZ domain containing 1) | 0.07 | inactive
FRMPD1 (FERM and PDZ domain containing 1) | -0.66 | inactive
FRMPD1 (FERM and PDZ domain containing 1) | -0.43 | inactive
FRMPD1 (FERM and PDZ domain containing 1) | 0.01 | inactive
SLC5A7 | -0.51 | inactive
SLC5A7 | 0.89 | inactive
SLC5A7 | -0.26 | inactive
SLC5A7 | 0.79 | inactive
USP19 (ubiquitin specific peptidase 19) | 0.57 | inactive
USP19 (ubiquitin specific peptidase 19) | 0.14 | inactive
USP19 (ubiquitin specific peptidase 19) | -0.22 | inactive
USP19 (ubiquitin specific peptidase 19) | -0.49 | inactive
EXOSC2 (exosome component 2) | -0.72 | inactive
EXOSC2 (exosome component 2) | -0.26 | inactive
EXOSC2 (exosome component 2) | -0.46 | inactive
EXOSC2 (exosome component 2) | 0.82 | inactive
SAXO5 (stabilizer of axonemal microtubules 5) | -1.14 | inactive
SAXO5 (stabilizer of axonemal microtubules 5) | -1.55 | active
SAXO5 (stabilizer of axonemal microtubules 5) | -1.69 | active
SAXO5 (stabilizer of axonemal microtubules 5) | -1.37 | inactive
VSIG10 (V-set and immunoglobulin domain containing 10) | -0.7 | inactive
VSIG10 (V-set and immunoglobulin domain containing 10) | 0.84 | inactive
VSIG10 (V-set and immunoglobulin domain containing 10) | 0.49 | inactive
VSIG10 (V-set and immunoglobulin domain containing 10) | 0.33 | inactive
NRG3 (neuregulin 3) | 0.52 | inactive
NRG3 (neuregulin 3) | 0.81 | inactive
NRG3 (neuregulin 3) | 0.73 | inactive
NRG3 (neuregulin 3) | 0.71 | inactive
XPO1 (exportin 1) | 3.06 | active
XPO1 (exportin 1) | 3.11 | active
XPO1 (exportin 1) | 4.58 | active
XPO1 (exportin 1) | 3.78 | active
NUFIP1 (nuclear FMR1 interacting protein 1) | 0.6 | inactive
NUFIP1 (nuclear FMR1 interacting protein 1) | -0.01 | inactive
NUFIP1 (nuclear FMR1 interacting protein 1) | -0.04 | inactive
NUFIP1 (nuclear FMR1 interacting protein 1) | 0.75 | inactive
FGFR1OP2 (FGFR1 oncogene partner 2) | 0.45 | inactive
FGFR1OP2 (FGFR1 oncogene partner 2) | 0.04 | inactive
FGFR1OP2 (FGFR1 oncogene partner 2) | -1.56 | active
FGFR1OP2 (FGFR1 oncogene partner 2) | -0.8 | inactive
WDR59 (WD repeat domain 59) | -0.27 | inactive
WDR59 (WD repeat domain 59) | -0.61 | inactive
WDR59 (WD repeat domain 59) | 0.34 | inactive
WDR59 (WD repeat domain 59) | -0.68 | inactive
TM2D3 (TM2 domain containing 3) | -0.17 | inactive
TM2D3 (TM2 domain containing 3) | -0.26 | inactive
TM2D3 (TM2 domain containing 3) | 0.25 | inactive
TM2D3 (TM2 domain containing 3) | -0.37 | inactive

Sorted by “TNF reporter robust z-score” (lowest first): 10 of the entries above
target | TNF reporter robust z-score | outcome
SAXO5 (stabilizer of axonemal microtubules 5) | -1.69 | active
SAXO5 (stabilizer of axonemal microtubules 5) | -1.55 | active
SAXO5 (stabilizer of axonemal microtubules 5) | -1.37 | inactive
SAXO5 (stabilizer of axonemal microtubules 5) | -1.14 | inactive
EXOSC2 (exosome component 2) | -0.72 | inactive
VSIG10 (V-set and immunoglobulin domain containing 10) | -0.7 | inactive
EXOSC2 (exosome component 2) | -0.46 | inactive
EXOSC2 (exosome component 2) | -0.26 | inactive
EXOSC2 (exosome component 2) | 0.82 | inactive
VSIG10 (V-set and immunoglobulin domain containing 10) | 0.84 | inactive

Continued.
target | TNF reporter robust z-score | outcome
CAV1 (caveolin 1) | -0.98 | inactive
CAV1 (caveolin 1) | -0.16 | inactive
CAV1 (caveolin 1) | -1.64 | active
CAV1 (caveolin 1) | 0.16 | inactive
OR8G1 (olfactory receptor family 8 subfamily G member 1) | -0.05 | inactive
OR8G1 (olfactory receptor family 8 subfamily G member 1) | 0.46 | inactive
OR8G1 (olfactory receptor family 8 subfamily G member 1) | 1.44 | inactive
OR8G1 (olfactory receptor family 8 subfamily G member 1) | -0.26 | inactive
OR8H1 (olfactory receptor family 8 subfamily H member 1) | 0.23 | inactive
OR8H1 (olfactory receptor family 8 subfamily H member 1) | 0.68 | inactive
OR8H1 (olfactory receptor family 8 subfamily H member 1) | -0.18 | inactive
OR8H1 (olfactory receptor family 8 subfamily H member 1) | 0.65 | inactive
FAIM2 (Fas apoptotic inhibitory molecule 2) | 0.06 | inactive
FAIM2 (Fas apoptotic inhibitory molecule 2) | 1.05 | inactive
FAIM2 (Fas apoptotic inhibitory molecule 2) | -0.8 | inactive
FAIM2 (Fas apoptotic inhibitory molecule 2) | 0.07 | inactive
SP140L (SP140 like nuclear body protein) | 0.09 | inactive
SP140L (SP140 like nuclear body protein) | -0.19 | inactive
SP140L (SP140 like nuclear body protein) | -0.05 | inactive
TPSD1 (tryptase delta 1) | -0.19 | inactive
TPSD1 (tryptase delta 1) | 2.51 | inactive
TPSD1 (tryptase delta 1) | 2.14 | inactive
TPSD1 (tryptase delta 1) | 2.8 | active
DYNLL2 (dynein light chain LC8-type 2) | 1.57 | inactive
DYNLL2 (dynein light chain LC8-type 2) | 1.03 | inactive
DYNLL2 (dynein light chain LC8-type 2) | 0.19 | inactive
DYNLL2 (dynein light chain LC8-type 2) | 1.78 | inactive
NPAP1 (nuclear pore associated protein 1) | -1.18 | inactive
NPAP1 (nuclear pore associated protein 1) | -1.71 | active
NPAP1 (nuclear pore associated protein 1) | -1.25 | inactive
NPAP1 (nuclear pore associated protein 1) | -1.37 | inactive
APOL4 (apolipoprotein L4) | -0.21 | inactive
APOL4 (apolipoprotein L4) | 0.51 | inactive
APOL4 (apolipoprotein L4) | 0 | inactive
APOL4 (apolipoprotein L4) | -0.85 | inactive
CASP7 (caspase 7) | -0.75 | inactive
CASP7 (caspase 7) | 0.66 | inactive
CASP7 (caspase 7) | -0.8 | inactive
CASP7 (caspase 7) | -0.16 | inactive
NUDT8 (nudix hydrolase 8) | 0.06 | inactive
NUDT8 (nudix hydrolase 8) | 0.32 | inactive
NUDT8 (nudix hydrolase 8) | 0.61 | inactive
NUDT8 (nudix hydrolase 8) | 0.13 | inactive
NRIP3 (nuclear receptor interacting protein 3) | -0.7 | inactive
NRIP3 (nuclear receptor interacting protein 3) | -0.08 | inactive
NRIP3 (nuclear receptor interacting protein 3) | 0.12 | inactive
NRIP3 (nuclear receptor interacting protein 3) | 0.37 | inactive
RBM14 (RNA binding motif protein 14) | -0.28 | inactive
RBM14 (RNA binding motif protein 14) | 0.09 | inactive
RBM14 (RNA binding motif protein 14) | -0.33 | inactive
RBM14 (RNA binding motif protein 14) | -0.59 | inactive
RNF26 (ring finger protein 26) | 0.39 | inactive
RNF26 (ring finger protein 26) | -0.56 | inactive
RNF26 (ring finger protein 26) | -0.23 | inactive
RNF26 (ring finger protein 26) | -0.73 | inactive
ZNF318 (zinc finger protein 318) | -0.65 | inactive
ZNF318 (zinc finger protein 318) | -0.38 | inactive
ZNF318 (zinc finger protein 318) | -0.44 | inactive
ZNF318 (zinc finger protein 318) | -0.34 | inactive
